Source: publication PMC7819943, “Rice protein-binding microarrays: a tool to detect cis-acting elements near promoter regions in rice”
This is one part of the list.

The chains behind the UniProt entries cited, without tags or fusion partners.
UniProt Q0JBA9, entry or part of it: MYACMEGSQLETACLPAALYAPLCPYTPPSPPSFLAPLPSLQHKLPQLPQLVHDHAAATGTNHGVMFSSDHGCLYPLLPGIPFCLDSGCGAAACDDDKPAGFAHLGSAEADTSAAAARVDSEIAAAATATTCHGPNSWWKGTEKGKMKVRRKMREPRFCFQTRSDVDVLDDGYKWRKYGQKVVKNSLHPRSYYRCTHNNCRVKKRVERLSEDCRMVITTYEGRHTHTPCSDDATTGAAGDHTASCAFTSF

target: OsWRKY34 (Oryza sativa, UniProt Q0JBA9 1-250); experiment: protein-binding microarray (RPBM); PBS, 2% BSA, 51.3 ng/ul salmon testes DNA, 50 uM zinc acetate, 200 nM TF, 25 C, 1 h; high values mean tight binding; conditions: protein: recombinant; tags: N-terminal polyhistidine and DsRed monomer fusion (pET32a); label: CyDye5-dUTP incorporated in the synthesized complementary strand; 3' TTTTT single-stranded linker to array surface; dsDNA, one strand shown
Outline: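 Transcription factors, each fused N-terminally to a polyhistidine tag and DsRed, were expressed in E. coli BL21-CodonPlus and purified on Ni–NTA. A custom Agilent array was made double-stranded by primer extension with Cy5-dUTP and blocked with 2% BSA. It was incubated with 200 nM protein in PBS, 2% BSA, salmon testes DNA and 50 µM zinc acetate at 25 °C for 1 h, then washed. The binding signal is per-feature fluorescence intensity (arbitrary units) read on an Axon 4000B scanner.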

Sequence | binding signal
CAGTGGATCATTCTCCATTCGGGTGTTCTTAACTTATGTACGGAGTCACCTAGTGCAG | 10600 fluorescence intensity (a.u.)
TGCTCTGTTGTCGCCGTCTTTCCGCTGCTCCTTCCTTGAGCGGAGTCACCTAGTGCAG | 11800 fluorescence intensity (a.u.)
GGTGTGCATAGATGCGTGGTGTTTGTGACCTCTCGTTGTACGGAGTCACCTAGTGCAG | 8400 fluorescence intensity (a.u.)
TCCCCTGCTGCTTCGCGCAACATATTTACTATCTTTGTACCGGAGTCACCTAGTGCAG | 12900 fluorescence intensity (a.u.)
GGGGTATAGTTAGTTAGTTGTGCTTAGTCCAAATTAGGCCCGGAGTCACCTAGTGCAG | 10800 fluorescence intensity (a.u.)
TACCCTCGGTTCTCGCGGATTATTACCGTTTTCTTCCCGCCGGAGTCACCTAGTGCAG | 8530 fluorescence intensity (a.u.)
TAATTTATCTATTTGATACCACTTTCTCTGTTTTTCATGTCGGAGTCACCTAGTGCAG | 8160 fluorescence intensity (a.u.)
TTTAATTTTTTTTACAATCGATATTTTTTATCTCAAACAACGGAGTCACCTAGTGCAG | 9040 fluorescence intensity (a.u.)
CGTGTCGTCCCAATCCGCCACGTCCTCGCCCAAAGCTCCACGGAGTCACCTAGTGCAG | 9420 fluorescence intensity (a.u.)
AACTTTTAACTTTTACATTGCATCAAAATTTTCCTACACACGGAGTCACCTAGTGCAG | 8690 fluorescence intensity (a.u.)
CGCTGCCACCATTGCCGAGCCCGCCGCCATCGCCCGAGCCCGGAGTCACCTAGTGCAG | 9580 fluorescence intensity (a.u.)
TGATAATAATTATTTCTTGGTCTGTGGGTTAGGGATGGTTCGGAGTCACCTAGTGCAG | 9540 fluorescence intensity (a.u.)
AGTCACCTCCAACCGCTCGTGTTTTTTTTTTCTTTTTAGGCGGAGTCACCTAGTGCAG | 8650 fluorescence intensity (a.u.)
TCTCTCGTATCTGCATCCTGACCGTCAAACAAGATTACACCGGAGTCACCTAGTGCAG | 8380 fluorescence intensity (a.u.)
AATTCTCAAACCACAACACACACACACAAACAGTTGGTCCCGGAGTCACCTAGTGCAG | 8400 fluorescence intensity (a.u.)
AAACTGCCAAAACCGCCACGTCCGTAGCACGCTAAAACCTCGGAGTCACCTAGTGCAG | 9680 fluorescence intensity (a.u.)
TAATGTGGTCGCTTGTTTGTTGTGTCTGAACATTTTCTTCCGGAGTCACCTAGTGCAG | 13100 fluorescence intensity (a.u.)
TCTCTTATTTTCTTCCCCTGTTATGTCTGAAACTCTGAATCGGAGTCACCTAGTGCAG | 8720 fluorescence intensity (a.u.)
CGGAGTCGGAGCTCTAGCTTGGTTCATCGGTTGCATACTTCGGAGTCACCTAGTGCAG | 8120 fluorescence intensity (a.u.)
GTGGTTTGCAGCAGGTGAGCAGGATGGGTGTGGATGATTGCGGAGTCACCTAGTGCAG | 10300 fluorescence intensity (a.u.)
CCGAATCCATTTCCAATAATCCATTTCGCCACGATTTGTTCGGAGTCACCTAGTGCAG | 8180 fluorescence intensity (a.u.)

Sequence | binding signal
TACGCTAGTCACTAGTACGGGGCGGCAGGGGATAAATGAACGGAGTCACCTAGTGCAG | 10300 fluorescence intensity (a.u.)
ACTCCGGCGGGTTAGGGTTTGGGGTTGGGGTGAGGGTAGGCGGAGTCACCTAGTGCAG | 10900 fluorescence intensity (a.u.)
ATTCCTGGAGTGGATAGTCGCTTATTTCTTGCATGTCATCCGGAGTCACCTAGTGCAG | 9550 fluorescence intensity (a.u.)
AGTGCTTATTTAATTCGCTAGGTAGTTCCCTGGCCTTGACCGGAGTCACCTAGTGCAG | 8610 fluorescence intensity (a.u.)
CCTCGAATTCGTTTTATTTTTTGTTCCACCAAAAATGTTTCGGAGTCACCTAGTGCAG | 8680 fluorescence intensity (a.u.)
ACGTGTCCTTGTTTCCCATTAATACGTTTTTTAAACCACTCGGAGTCACCTAGTGCAG | 12100 fluorescence intensity (a.u.)
TTTGCGTCGCCTTTCATTTTGGATGTTTCAATTTGAATACCGGAGTCACCTAGTGCAG | 10400 fluorescence intensity (a.u.)
GGGGCTAGGGTTTGGGTGGGATCTCAGCCGTCGGATCTGACGGAGTCACCTAGTGCAG | 17000 fluorescence intensity (a.u.)
ACCATCCATTCGATCGGTTTAGATCCGGCGCGCGCCGGACCGGAGTCACCTAGTGCAG | 9240 fluorescence intensity (a.u.)
TTATGTTTTTCACATGTTCTCGCATTGCAATCCATACTTACGGAGTCACCTAGTGCAG | 10400 fluorescence intensity (a.u.)
AATACTATCACATCCGCATTCACATACCTCTACCATACAACGGAGTCACCTAGTGCAG | 8930 fluorescence intensity (a.u.)
CAAATTCCTTCAGTTCCATGCCTACAGAGTTGCCGTCTGCCGGAGTCACCTAGTGCAG | 8790 fluorescence intensity (a.u.)
TCTTTTGTCCATCTATTTCAAACTTCTACTCGACCTTAAACGGAGTCACCTAGTGCAG | 9080 fluorescence intensity (a.u.)
GCCCTCGCGCCACGTGGAGGTCACCTCCCATTTCCTCGTCCGGAGTCACCTAGTGCAG | 8450 fluorescence intensity (a.u.)
TCAATCTTTCAATGTTTCTTCACTTGGTCACTGCCCTCATCGGAGTCACCTAGTGCAG | 9060 fluorescence intensity (a.u.)
TCGTCTCCGGCCTTTTCTTGCTCTCCTCGTCTTCTTCCTCCGGAGTCACCTAGTGCAG | 13200 fluorescence intensity (a.u.)
ACCATTTAACTCACCATGTTTATGTTGAATTGCTAGCTATCGGAGTCACCTAGTGCAG | 10200 fluorescence intensity (a.u.)
TTTTGCCAATGACCAACGATTGATCCTAAGAATTGCCATACGGAGTCACCTAGTGCAG | 8370 fluorescence intensity (a.u.)
TCCTGTTATTACTCCCCTAAGCTGGCGCCAGCTCAAGCACCGGAGTCACCTAGTGCAG | 8150 fluorescence intensity (a.u.)
AGATCTATACATGTAATAGGTGAGTTCCTTCCTGTTTTCTCGGAGTCACCTAGTGCAG | 8580 fluorescence intensity (a.u.)
AAGCCCAAAGACCCAATCTTTCCTTAGAAATTTAATTTTTCGGAGTCACCTAGTGCAG | 8040 fluorescence intensity (a.u.)

Taken from the entries so far for reference:
Sequence | binding signal
AATACTATCACATCCGCATTCACATACCTCTACCATACAACGGAGTCACCTAGTGCAG | 8930 fluorescence intensity (a.u.)
CAAATTCCTTCAGTTCCATGCCTACAGAGTTGCCGTCTGCCGGAGTCACCTAGTGCAG | 8790 fluorescence intensity (a.u.)
TCTTTTGTCCATCTATTTCAAACTTCTACTCGACCTTAAACGGAGTCACCTAGTGCAG | 9080 fluorescence intensity (a.u.)
GCCCTCGCGCCACGTGGAGGTCACCTCCCATTTCCTCGTCCGGAGTCACCTAGTGCAG | 8450 fluorescence intensity (a.u.)
TCAATCTTTCAATGTTTCTTCACTTGGTCACTGCCCTCATCGGAGTCACCTAGTGCAG | 9060 fluorescence intensity (a.u.)
TCGTCTCCGGCCTTTTCTTGCTCTCCTCGTCTTCTTCCTCCGGAGTCACCTAGTGCAG | 13200 fluorescence intensity (a.u.)
ACCATTTAACTCACCATGTTTATGTTGAATTGCTAGCTATCGGAGTCACCTAGTGCAG | 10200 fluorescence intensity (a.u.)
